Laboratory results: PubChem BioAssay AID493014 (National Center for Advancing Translational Sciences (NCATS), 2011)
This is one part of the list. Shown are side measurements of this screen, not its main read-out; they come without a call. Compounds called inactive in the main read-out are mostly missing here. The note in brackets gives the kind of curve behind each potency; many fits are weak.

Test: qHTS Assay to Find Inhibitors of Chronic Active B-Cell Receptor Signaling
Conditions: ABC-DLBCL IkBa-CBG/CBR reporter, luminescence ratio (green luciferase fused to IkBa over red control in TMD8 lymphoma cells), 4 h
Outline: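 Cell line TMD8 (human ABC DLBCL), stably expressing tet-inducible CBG68-IkBa fusion and CBR; IMDM/0.5% FBS; cpd up to 46 uM; dox induction, 4 h, 37C/5% CO2; dual luminescence; green/red ratio; MG132 control.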

[1] = measured here: CBR red luminescence, cell number
[2] = measured here: IkBa-CBG green luminescence

| Structure (SMILES) | AC50 [1] | AC50 [2] |
| --- | --- | --- |
| COCCN1CN=C(Nc2nc(C)c3ccc(C)cc3n2)NC1 | 7.94 µM [falling, partial curve, poor fit] |  |
| O=C(COc1ccccc1Cl)NC(=O)NC1CCCCC1 | 16.4 µM [falling, partial curve] |  |
| Nc1ccc2nc(-c3cccc(-c4nc5ccc(N)cc5[nH]4)c3)[nH]c2c1 | 4.47 µM [falling, single point] |  |
| CSCC[C@H](NC(=O)[C@H](Cc1ccccc1)n1c(=O)[nH]c2ccccc2c1=O)C(=O)N1CCC(C(=O)O)CC1 | 6.31 µM [falling, partial curve, poor fit] |  |
| CSc1cccc(NC(=S)NC(=O)CCc2ccccc2)c1 | 15.8 µM [rising, single point] |  |
| Cn1ccc(C(=O)N/N=C/c2ccccc2[N+](=O)[O-])n1 | 15.8 µM [falling, partial curve] |  |
| COc1ccc(-n2c(C)c(C)c3c(N)ncnc32)cc1 | 28.2 µM [falling, single point] |  |
| Cn1c(SCC(=O)c2ccccc2)nc2cccnc21 | 6.51 µM [rising, partial curve, poor fit] |  |
| CC1(C)CC[C@]2(C(=O)O)CC[C@]3(C)C(=CC[C@@H]4[C@@]5(C)CC[C@H](O[C@@H]6O[C@H](C(=O)O)[C@@H](O)[C@H](O[C@@H]7OC[C@H](O)[C@H](O)[C@H]7O)[C@H]6O)C(C)(C)[C@@H]5CC[C@]43C)[C@@H]2C1 | 29.1 µM [falling, single point] |  |
| Cc1csc(NC(=O)Nc2ccc(Cl)cc2)n1 | 8.91 µM [falling, partial curve, poor fit] |  |
| O=C(CCCN1C(=O)/C(=C/c2cccc(Br)c2)SC1=S)Nc1ccccn1 | 2.06 µM [falling, full curve] |  |
| COc1cccc(-c2csc3ncnc(Sc4nnnn4C)c23)c1 | 6.51 µM [falling, partial curve] |  |
| O=C1C(=O)N(Cc2ccco2)C(c2cccs2)/C1=C(\O)c1cccc([N+](=O)[O-])c1 (stereo not drawn) | 7.08 µM [rising, partial curve, poor fit] |  |
| CCN(CC)CCOC(=O)c1ccc(NC(=O)/C=C/c2cccs2)cc1 | 7.31 µM [falling, partial curve] |  |
| O=c1c(/C=N/O)coc2ccc3ccccc3c12 | 35.5 µM [falling, single point] |  |
| O=[N+]([O-])c1ccc2nc(NCCCO)nc(-c3ccccc3)c2c1 | 10.3 µM [falling, partial curve] |  |
| O=C(NCC(=O)N(c1cnc2ccccc2c1)C(C(=O)NC1CCCC1)c1ccncc1)c1ccco1 (stereo not drawn) | 7.31 µM [rising, partial curve, poor fit] |  |
| COc1ccc(C(=O)NC(=S)Nc2ccc(NC(=O)c3ccco3)cc2)cc1[N+](=O)[O-] | 13 µM [rising, partial curve] |  |
| COc1ccc(CCN2C(=O)c3[nH]nc(-c4ccccc4O)c3C2c2cccc(O)c2)cc1OC (stereo not drawn) | 35.5 µM [falling, single point] |  |
| COCn1c(COc2ccc3ccccc3c2)nc2ccccc21 | 0.411 µM [rising, full curve] |  |
| COc1ccc(COc2ccc3c(C)cc(=O)oc3c2)cc1 | 6.31 µM [rising, partial curve, poor fit] |  |

Pulled one by one from the list above:

| Structure (SMILES) | AC50 [1] | AC50 [2] |
| --- | --- | --- |
| O=C1C(=O)N(Cc2ccco2)C(c2cccs2)/C1=C(\O)c1cccc([N+](=O)[O-])c1 (stereo not drawn) | 7.08 µM [rising, partial curve, poor fit] |  |
| O=C(NCC(=O)N(c1cnc2ccccc2c1)C(C(=O)NC1CCCC1)c1ccncc1)c1ccco1 (stereo not drawn) | 7.31 µM [rising, partial curve, poor fit] |  |
| CSc1cccc(NC(=S)NC(=O)CCc2ccccc2)c1 | 15.8 µM [rising, single point] |  |

(more compounds)

| Structure (SMILES) | AC50 [1] | AC50 [2] |
| --- | --- | --- |
| NS(=O)(=O)c1ccc(NC(=S)NCc2cccs2)cc1 | 20 µM [falling, single point] |  |
| COc1ccccc1NC(=O)c1cc2ccc(O)cc2o/c1=N\O | 5.01 µM [falling, partial curve, poor fit] |  |
| CCc1nnc(NC(=O)CN2CCN(C3CCCCC3)CC2)s1 | 6.51 µM [rising, partial curve, poor fit] |  |
| CC(C)CN(C(=O)COC(=O)CNC(=O)c1ccccc1)c1c(N)n(Cc2ccccc2)c(=O)[nH]c1=O | 10.3 µM [rising, partial curve, poor fit] |  |
| O=C(O)CCCn1c(=S)[nH]c2c(sc3ccc([N+](=O)[O-])cc32)c1=O | 7.08 µM [falling, partial curve, poor fit] |  |
| c1ccc(-c2nnc3n2NC(c2ccc4c(c2)OCO4)S3)cc1 (stereo not drawn) |  | 6.51 µM [rising, partial curve, poor fit] |
| COc1cc(N=Cc2c(O)[nH]c3ccccc23)cc(OC)c1OC | 7.31 µM [falling, partial curve] |  |
| CCc1c(C)sc(NC(=S)N2CCN(CC)CC2)c1C(=O)OC | 6.31 µM [rising, single point] |  |
| CC(=O)Nc1ccc(C#Cc2ccc(NC(C)=O)cc2)cc1 | 14.1 µM [rising, single point] |  |
| COc1cc(C(=O)OCC(C)=O)cc(NC(=O)c2ccco2)c1OC | 20 µM [rising, single point] |  |
| COc1cccc(-c2noc(CCC(=O)NCC3CCCO3)n2)c1 (stereo not drawn) | 10 µM [rising, partial curve, poor fit] |  |
| COc1ccc(OC)c(S(=O)(=O)Nc2ccc(O)c3ccccc23)c1 | 9.2 µM [falling, partial curve, poor fit] |  |
| O=[N+]([O-])c1cc(Cl)cc(/C=N/NC(=S)Nc2cc(S(=O)(=O)N3CCOCC3)ccc2Cl)c1O | 14.1 µM [falling, partial curve, poor fit] |  |
| CC(=O)c1ccc(NC(=O)c2ccc([N+](=O)[O-])o2)cc1 | 35.5 µM [falling, single point] |  |
| Cc1cccc(NC(=O)C(=O)C2C(=O)Nc3ccccc32)c1 (stereo not drawn) | 8.91 µM [falling, partial curve, poor fit] |  |
| CCSC1=N/C(=C\C=C2/Oc3ccccc3N2CC)C(=O)S1 | 3.55 µM [rising, partial curve, poor fit] |  |
| Cc1cc(C)c2c(=O)[nH]c(SCC(=O)N(C)C)nc2n1 | 8.91 µM [falling, partial curve, poor fit] |  |
| Cc1ccc(NC(=O)CCc2nnc3ccc(N4CCC(C)CC4)nn23)nc1 | 3.98 µM [rising, partial curve, poor fit] |  |
| O=C(CSc1nnc(CNC(=O)c2cccs2)o1)Nc1ccccc1 | 35.5 µM [falling, single point] | 35.5 µM [rising, partial curve, poor fit] |
| COC(=O)Cc1csc(/N=C/c2c(O)n(-c3cccc(C(F)(F)F)c3)c(=O)c3ccccc23)n1 | 29.1 µM [rising, single point] |  |
| CCCSc1nc2c(c(=O)n1CC)SC(C)C2 (stereo not drawn) | 6.51 µM [rising, single point] |  |

| Structure (SMILES) | AC50 [1] | AC50 [2] |
| --- | --- | --- |
| Cc1[nH]c2ccc(OC(=O)N3CCOCC3)cc2c1C(=O)OC(C)C |  | 3.66 µM [falling, single point] |
| COc1ccc(CNc2nc3ccccc3n2C)c(O)c1 | 6.31 µM [rising, full curve] |  |
| COc1cc(S(=O)(=O)NCCc2c(C)[nH]c3ccc(C)cc23)ccc1Br | 14.1 µM [falling, single point] | 35.5 µM [rising, partial curve, poor fit] |
| CS(=O)(=O)c1ccc2c(c1)sc1nc(=O)c(/C=C3/C=CC(=O)C(O)=C3)c(N)n12 | 11.2 µM [falling, partial curve] |  |
| COc1ccc(-c2nn(-c3ccccc3)cc2/C=N/n2cnnc2)cc1OC | 10.3 µM [rising, partial curve, poor fit] |  |
| C/C(=N\Nc1ccc([N+](=O)[O-])cc1)c1ccc(-n2nncc2C)cc1 | 4.61 µM [rising, full curve, poor fit] |  |
| COc1ccc(Nc2nc(-c3ccccc3)nc3ccccc23)cc1S(=O)(=O)N1CCOCC1 | 15.8 µM [falling, single point] |  |
| c1ccc(-c2noc(-c3cccc4ccccc34)n2)nc1 | 25.9 µM [falling, single point] |  |
| Fc1cccc(Nc2nc(N3CCOCC3)nc(N3CCOCC3)n2)c1 | 11.2 µM [falling, single point] |  |
| COc1cc(N/N=C(\C)c2ccc(N)cc2)nc(-c2ccccc2)n1 | 12.6 µM [falling, partial curve, poor fit] |  |
| O=C(O)c1cccc(S(=O)(=O)Nc2cccc(S(=O)(=O)N3CCCC3)c2)c1 | 0.00461 µM [falling, full curve, poor fit] |  |
| C=CCc1c(C)[nH]c2ccc(C)cc2c1=O | 3.26 µM [rising, single point] |  |
| CCCn1nc(NC(=O)C2CCCO2)c2cc3cc(C)ccc3nc21 (stereo not drawn) | 0.82 µM [falling, full curve, poor fit] |  |
| O=C(N/N=C/c1ccc(N2CCOCC2)o1)c1ccccc1[N+](=O)[O-] | 25.9 µM [falling, single point] |  |
| Cc1ccc2[nH]c(=O)c(CN(Cc3cccnc3)Cc3nnnn3CCN3CCOCC3)cc2c1 |  | 4.11 µM [rising, partial curve, poor fit] |
| COc1ccc(C2=CC(c3cccc(OC)c3)n3nnnc3N2)cc1 (stereo not drawn) | 23.1 µM [falling, single point] |  |
| COc1ccc(NC(=O)CN(C)C(=O)c2ccc3[nH]c4c(c3c2)CC(C)CC4)cc1 (stereo not drawn) | 16.4 µM [falling, single point] |  |
| CCC1Oc2ccc(C)cc2N(CC(=O)N(Cc2ccc(C)o2)C2CC(C)(C)NC(C)(C)C2)C1=O (stereo not drawn) | 10.3 µM [falling, partial curve] |  |
| CC1CC(C)CN(C(=S)NC2CCCCC2)C1 (stereo not drawn) | 0.651 µM [rising, full curve, poor fit] |  |
